Test results from the supplement of paper PMC7024190.
The other results are listed elsewhere or left out. Repeats in this data set agree poorly, so a single value says little.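 The cells were human embryonic kidney cells carrying a Renilla luciferase gene, driven by the HSV-TK promoter, on a plasmid put in briefly by transfection. This is the first-round screen of about ten thousand compounds, looking for ones that raise reporter output.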

These molecules were tested on HEK 293FT (assay: log relative Renilla luciferase luminescence (reporter expression vs reference, reference not stated) (log (base not stated)); higher = higher recombinant reporter expression). Settings: 10 µM; time after transfection 48 h.
Method: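 HEK 293FT cells transiently transfected with pRL-TK (Renilla luciferase) were treated with compounds at 10 uM and luminescence was read about 42 h later. Values are log relative Renilla luminescence (log base and reference not stated). Single-pass screen; 2080 natural products library.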

| SMILES | log |
| --- | --- |
| CC1(C)O[C@H](COc2c3occc3cc3ccc(=O)oc23)C(C)(C)O1 [Heraclenol acetonide] | -0.195 |
| C=C1C(=O)O[C@H]2C[C@@H](C)[C@@H]3CC[C@H](O)[C@@]3(C)[C@@H](O)[C@H]12 [Carabrolactone B] | 0.108 |
| COC1=CC(=O)C=C(OC)C1(O)CC(C)=O [2,6-Dimethoxy-1-acetonylquinol] | -0.00754 |
| C[C@H](CCC=C(CO)CO)[C@H]1CC[C@@]2(C)C3=CC[C@H]4C(C)(C)C(=O)CC[C@]4(C)C3=CC[C@]12C [Ganoderiol F] | 0.183 |
| CC(=O)CC[C@@H]1[C@H]([C@H]2C(=O)CC[C@]2(C)C(CC(C)C)c2c(O)c(C=O)c(O)c(C=O)c2O)C1(C)C (stereo not given in full) [Eucalyptone] | -0.204 |
| C[C@H]1COC2=C1C(=O)C(=O)c1c2ccc2c1CCCC2(C)C [Cryptotanshinone] | -0.441 |
| CC(=O)O[C@H]1C[C@H]2C(=CC[C@@H]3[C@]2(C)CCC[C@@]3(C)C(=O)O)C=C1C(C)C [12-Acetoxyabietic acid] | -0.0137 |
| COc1cc(C2Oc3cc4oc(=O)ccc4cc3OC2COC(C)=O)cc(OC)c1OC(C)=O (stereo not given) [Moluccanin diacetate] | -0.159 |
| C=C1C(OC(C)=O)C(O)C(OC(=O)c2cccnc2)C(C)(C)C=CC(C)C(OC(C)=O)C2(O)CC(C)(OC(C)=O)C(OC(=O)c3ccccc3)C2C1OC(C)=O (stereo not given) | -0.186 |
| C=C1C(=O)[C@]23C[C@H]1C[C@@H](O)[C@H]2[C@]12CO[C@@H]4OC[C@](C)(CC[C@@H]1OC3=O)[C@@H]42 [Sculponeatin A] | -0.125 |

As a working copy, two of the compounds above.

| SMILES | log |
| --- | --- |
| C=C1C(OC(C)=O)C(O)C(OC(=O)c2cccnc2)C(C)(C)C=CC(C)C(OC(C)=O)C2(O)CC(C)(OC(C)=O)C(OC(=O)c3ccccc3)C2C1OC(C)=O (stereo not given) | -0.186 |
| C=C1C(=O)[C@]23C[C@H]1C[C@@H](O)[C@H]2[C@]12CO[C@@H]4OC[C@](C)(CC[C@@H]1OC3=O)[C@@H]42 [Sculponeatin A] | -0.125 |
